PubChem BioAssay AID652272 | Drosophila RNAi Screening Center | 2013
In all, the deposit lists about 21,000 reagents; below is a random part of those with a known target gene and a result. Over the whole deposit, 503 (2.4%) were called active. 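Raw plate light values, not normalised; calls rest on replicate z-scores that were not deposited; hits include reporter decreases as well as increases.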 Entries without a mark were called inactive. Not stated in the record: the amount of reagent, the time to read-out.

Assay: 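Genome-wide knock-down search for components of Hedgehog signalling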 (primary screen)
Cell system: Drosophila clone 8 (Cl8) cells
Reagent: long dsRNA against Drosophila genes
Measured: 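Firefly light from a Hedgehog-responsive ptc promoter reporter and Renilla reference light, both read on a plate reader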
Scale: firefly Hh reporter signal: higher = more ptc reporter light; Renilla reference signal: higher = more Renilla control light
Hit rule: 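Hit when the z-score averaged over two replicates is under -2 or over +3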
Meaning of the calls: active = hit: reporter lowered or raised; inactive = not a hit

{"Gene": "GC2", "PubChem SID": "SID104194268", "firefly Hh reporter signal, replicate 1": 92657, "firefly Hh reporter signal, replicate 2": 90258, "Renilla reference signal, replicate 1": 3553, "Renilla reference signal, replicate 2": 1642}
{"Gene": "CG31213", "PubChem SID": "SID104194104", "firefly Hh reporter signal, replicate 1": 5.73e5, "firefly Hh reporter signal, replicate 2": 72360, "Renilla reference signal, replicate 1": 29826, "Renilla reference signal, replicate 2": 2051}
{"Gene": "CG31213", "PubChem SID": "SID104195439", "firefly Hh reporter signal, replicate 1": 5.77e5, "firefly Hh reporter signal, replicate 2": 1.02e5, "Renilla reference signal, replicate 1": 29020, "Renilla reference signal, replicate 2": 2451}
{"Gene": "CG5079", "PubChem SID": "SID104195505", "firefly Hh reporter signal, replicate 1": 2.57e5, "firefly Hh reporter signal, replicate 2": 51735, "Renilla reference signal, replicate 1": 15200, "Renilla reference signal, replicate 2": 1909}
{"Gene": "Uba4", "PubChem SID": "SID104181986", "firefly Hh reporter signal, replicate 1": 92275, "firefly Hh reporter signal, replicate 2": 42896, "Renilla reference signal, replicate 1": 2233, "Renilla reference signal, replicate 2": 3972}
{"Gene": "mRpL50", "PubChem SID": "SID104190807", "firefly Hh reporter signal, replicate 1": 1.75e5, "firefly Hh reporter signal, replicate 2": 1.03e5, "Renilla reference signal, replicate 1": 7844, "Renilla reference signal, replicate 2": 4169}
{"Gene": "CG8060", "PubChem SID": "SID104186856", "firefly Hh reporter signal, replicate 1": 1.31e5, "firefly Hh reporter signal, replicate 2": 82583, "Renilla reference signal, replicate 1": 6342, "Renilla reference signal, replicate 2": 3818}
{"Gene": "exex", "PubChem SID": "SID104190764", "firefly Hh reporter signal, replicate 1": 41840, "firefly Hh reporter signal, replicate 2": 59828, "Renilla reference signal, replicate 1": 5968, "Renilla reference signal, replicate 2": 4274}
{"Gene": "ave", "PubChem SID": "SID104185294", "firefly Hh reporter signal, replicate 1": 2.01e5, "firefly Hh reporter signal, replicate 2": 3.60e5, "Renilla reference signal, replicate 1": 4769, "Renilla reference signal, replicate 2": 13276}
{"Gene": "lectin-24A", "PubChem SID": "SID104180396", "firefly Hh reporter signal, replicate 1": 1.08e5, "firefly Hh reporter signal, replicate 2": 58915, "Renilla reference signal, replicate 1": 2658, "Renilla reference signal, replicate 2": 5271}
{"Gene": "Nmnat", "PubChem SID": "SID104194436", "firefly Hh reporter signal, replicate 1": 5.32e5, "firefly Hh reporter signal, replicate 2": 1.15e5, "Renilla reference signal, replicate 1": 26593, "Renilla reference signal, replicate 2": 3846}
{"Gene": "sinu", "PubChem SID": "SID104189544", "firefly Hh reporter signal, replicate 1": 6.15e5, "firefly Hh reporter signal, replicate 2": 95975, "Renilla reference signal, replicate 1": 4594, "Renilla reference signal, replicate 2": 4594}
{"Gene": "GV1", "PubChem SID": "SID104188020", "firefly Hh reporter signal, replicate 1": 82103, "firefly Hh reporter signal, replicate 2": 44989, "Renilla reference signal, replicate 1": 2960, "Renilla reference signal, replicate 2": 3760}
{"Gene": "wnd", "PubChem SID": "SID104189418", "firefly Hh reporter signal, replicate 1": 4.22e5, "Renilla reference signal, replicate 1": 8880}
{"Gene": "wnd", "PubChem SID": "SID104190838", "firefly Hh reporter signal, replicate 1": 60800, "firefly Hh reporter signal, replicate 2": 89728, "Renilla reference signal, replicate 1": 2674, "Renilla reference signal, replicate 2": 3367}
{"Gene": "p38a", "PubChem SID": "SID104196535", "firefly Hh reporter signal, replicate 1": 6.92e5, "firefly Hh reporter signal, replicate 2": 1.38e5, "Renilla reference signal, replicate 1": 35280, "Renilla reference signal, replicate 2": 4118}
{"Gene": "CG16772", "PubChem SID": "SID104182308", "firefly Hh reporter signal, replicate 1": 1.06e5, "firefly Hh reporter signal, replicate 2": 66592, "Renilla reference signal, replicate 1": 2427, "Renilla reference signal, replicate 2": 6437}
{"Gene": "IKKepsilon", "PubChem SID": "SID104183342", "firefly Hh reporter signal, replicate 1": 67795, "firefly Hh reporter signal, replicate 2": 56482, "Renilla reference signal, replicate 1": 1724, "Renilla reference signal, replicate 2": 5912}
{"Gene": "CG6472", "PubChem SID": "SID104186781", "firefly Hh reporter signal, replicate 1": 72972, "firefly Hh reporter signal, replicate 2": 34605, "Renilla reference signal, replicate 1": 2048, "Renilla reference signal, replicate 2": 3104}
{"Gene": "CG13924", "PubChem SID": "SID104188185", "firefly Hh reporter signal, replicate 1": 69802, "firefly Hh reporter signal, replicate 2": 44836, "Renilla reference signal, replicate 1": 2120, "Renilla reference signal, replicate 2": 3475}
{"Gene": "beat-IIIb", "PubChem SID": "SID104182227", "firefly Hh reporter signal, replicate 1": 1.40e5, "firefly Hh reporter signal, replicate 2": 63538, "Renilla reference signal, replicate 1": 3595, "Renilla reference signal, replicate 2": 5597}
{"Gene": "CG7328", "PubChem SID": "SID104190604", "firefly Hh reporter signal, replicate 1": 61943, "firefly Hh reporter signal, replicate 2": 99117, "Renilla reference signal, replicate 1": 1330, "Renilla reference signal, replicate 2": 2916}
{"Gene": "M6", "PubChem SID": "SID104191661", "firefly Hh reporter signal, replicate 1": 63194, "firefly Hh reporter signal, replicate 2": 98272, "Renilla reference signal, replicate 1": 2197, "Renilla reference signal, replicate 2": 2416}
{"Gene": "natalisin", "PubChem SID": "SID104194758", "firefly Hh reporter signal, replicate 1": 33089, "firefly Hh reporter signal, replicate 2": 38362, "Renilla reference signal, replicate 1": 1479, "Renilla reference signal, replicate 2": 1201}
{"Gene": "natalisin", "PubChem SID": "SID104194759", "firefly Hh reporter signal, replicate 1": 1.05e5, "firefly Hh reporter signal, replicate 2": 82855, "Renilla reference signal, replicate 1": 3643, "Renilla reference signal, replicate 2": 1692}
{"Gene": "eIF2alpha", "PubChem SID": "SID104200119", "firefly Hh reporter signal, replicate 1": 62628, "firefly Hh reporter signal, replicate 2": 58466, "Renilla reference signal, replicate 1": 1405, "Renilla reference signal, replicate 2": 1652}
{"Gene": "CG15712", "PubChem SID": "SID104186375", "firefly Hh reporter signal, replicate 1": 1.18e5, "firefly Hh reporter signal, replicate 2": 64444, "Renilla reference signal, replicate 1": 3066, "Renilla reference signal, replicate 2": 5043}

2 neighbouring reagents from above, quoted:
{"Gene": "GC2", "PubChem SID": "SID104194268", "firefly Hh reporter signal, replicate 1": 92657, "firefly Hh reporter signal, replicate 2": 90258, "Renilla reference signal, replicate 1": 3553, "Renilla reference signal, replicate 2": 1642}
{"Gene": "CG31213", "PubChem SID": "SID104194104", "firefly Hh reporter signal, replicate 1": 5.73e5, "firefly Hh reporter signal, replicate 2": 72360, "Renilla reference signal, replicate 1": 29826, "Renilla reference signal, replicate 2": 2051}
